From US20250243289A1
These are yes or no findings as the source states them, for the method shown. Some entries that bind do so weakly or less than the wild type.

Molecular target: T1, Death Receptor 3 (DR3) natively expressed on human TF-1 cells (human) (UniProt Q93038)
T1 sequence (looked up): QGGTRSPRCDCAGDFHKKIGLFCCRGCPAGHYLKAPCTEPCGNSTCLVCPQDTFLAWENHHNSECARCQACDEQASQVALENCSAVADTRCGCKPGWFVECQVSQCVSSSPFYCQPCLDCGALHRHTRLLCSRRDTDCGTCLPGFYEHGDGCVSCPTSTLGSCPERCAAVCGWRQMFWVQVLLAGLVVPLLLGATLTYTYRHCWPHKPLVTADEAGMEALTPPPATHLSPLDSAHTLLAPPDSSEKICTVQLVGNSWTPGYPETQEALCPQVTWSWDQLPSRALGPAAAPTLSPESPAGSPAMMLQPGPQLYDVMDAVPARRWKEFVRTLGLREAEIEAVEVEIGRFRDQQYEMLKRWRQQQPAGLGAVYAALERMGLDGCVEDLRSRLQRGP
Assay: TF-1 cell caspase activation assay

B1: recombinant human TL1A protein (tumor necrosis factor-like cytokine 1A) (ligand, UniProt O95150 72-251, looked up)
chain: LKGQEFAPSHQQVYAPLRADGDKPRAHLTVVRQTPTQHFKNQFPALHWEHELGLAFTKNRMNYTNKFLLIPESGDYFIYSQVTFRGMTSECSEIRQAGRPNKPDSITVVITKVTDSYPEPTQLLMGTKSVCEVGSNWFQPIYLGAMFSLQEGDKLMVNVSDISLVDYTKEDKTFFGAFLL
In the case of B1, the binding is reported as “binds”.

B2: recombinant cynomolgus monkey TL1A protein (ligand)
chain: LKGQEFAPSHQQVYAPLRADGDKPRAHLTVVRQTPTQHLKNQFPALHWEHELGLAFTKNRMNYTNKFLLIPESGDYFVYSQVTFRGMTSECSEIRQAGRPNKPDSITVVITKVTDSYPEPTQLLMGTKSVCEVGSNWFQPIYLGAMFSLQEGDKLMVNVSDISLVDYTKEDKTFFGAFLL
For B2, the binding was “binds”.
